Measurements from PMC13080232.
Results are given in words; binding and its absence hold for the method and conditions named. In cells and extracts the contact can be indirect. Here binding means that the protein was enriched with, or labelled near, the bait; the list need not be complete.

The chains behind the UniProt entries cited, without tags or fusion partners. Where a name states a change or a piece, a line headed by the entry shows the natural chain unless it says otherwise. Residues count along the entry.
UniProt P21926: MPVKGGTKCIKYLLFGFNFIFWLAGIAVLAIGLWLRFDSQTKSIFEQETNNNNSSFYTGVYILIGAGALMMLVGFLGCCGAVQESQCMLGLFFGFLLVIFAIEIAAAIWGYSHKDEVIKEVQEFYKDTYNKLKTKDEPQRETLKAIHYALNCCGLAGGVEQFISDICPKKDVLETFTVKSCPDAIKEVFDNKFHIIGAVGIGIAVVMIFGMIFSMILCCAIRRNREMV
UniProt P36021: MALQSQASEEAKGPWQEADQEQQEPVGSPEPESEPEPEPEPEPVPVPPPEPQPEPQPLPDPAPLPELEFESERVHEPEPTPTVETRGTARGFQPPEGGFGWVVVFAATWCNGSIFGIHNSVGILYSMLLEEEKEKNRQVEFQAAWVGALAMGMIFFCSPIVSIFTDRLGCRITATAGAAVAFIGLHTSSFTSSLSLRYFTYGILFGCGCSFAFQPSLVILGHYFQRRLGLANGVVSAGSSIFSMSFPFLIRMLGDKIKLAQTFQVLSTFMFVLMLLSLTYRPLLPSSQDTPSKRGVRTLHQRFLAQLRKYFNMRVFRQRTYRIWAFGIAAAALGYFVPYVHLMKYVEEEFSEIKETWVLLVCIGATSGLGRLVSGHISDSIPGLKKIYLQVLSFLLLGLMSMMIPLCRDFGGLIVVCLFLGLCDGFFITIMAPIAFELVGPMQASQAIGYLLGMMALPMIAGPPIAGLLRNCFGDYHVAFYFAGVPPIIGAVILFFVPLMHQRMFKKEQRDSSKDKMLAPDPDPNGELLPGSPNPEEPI
UniProt Q15004: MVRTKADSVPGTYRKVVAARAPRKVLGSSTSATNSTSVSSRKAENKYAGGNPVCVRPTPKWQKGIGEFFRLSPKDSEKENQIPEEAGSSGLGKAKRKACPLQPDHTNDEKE
UniProt P15529, residues 35-392: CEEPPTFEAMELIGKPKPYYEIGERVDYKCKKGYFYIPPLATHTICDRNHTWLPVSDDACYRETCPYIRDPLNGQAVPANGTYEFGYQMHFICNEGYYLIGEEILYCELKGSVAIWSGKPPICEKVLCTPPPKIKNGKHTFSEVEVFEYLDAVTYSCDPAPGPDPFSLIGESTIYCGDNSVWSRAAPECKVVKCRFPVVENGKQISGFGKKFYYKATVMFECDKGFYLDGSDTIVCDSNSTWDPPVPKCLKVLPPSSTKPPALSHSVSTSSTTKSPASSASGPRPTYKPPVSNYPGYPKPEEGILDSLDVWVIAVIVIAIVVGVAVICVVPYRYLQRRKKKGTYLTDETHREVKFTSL
UniProt O95858: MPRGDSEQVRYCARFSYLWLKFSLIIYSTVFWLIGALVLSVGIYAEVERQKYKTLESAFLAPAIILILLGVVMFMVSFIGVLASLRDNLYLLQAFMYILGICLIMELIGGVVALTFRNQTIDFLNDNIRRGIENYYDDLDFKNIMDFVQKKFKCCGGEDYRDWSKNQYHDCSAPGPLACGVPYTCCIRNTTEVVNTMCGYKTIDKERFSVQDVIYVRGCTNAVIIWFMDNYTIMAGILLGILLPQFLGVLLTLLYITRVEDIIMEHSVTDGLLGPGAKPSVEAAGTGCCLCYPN
UniProt O75575: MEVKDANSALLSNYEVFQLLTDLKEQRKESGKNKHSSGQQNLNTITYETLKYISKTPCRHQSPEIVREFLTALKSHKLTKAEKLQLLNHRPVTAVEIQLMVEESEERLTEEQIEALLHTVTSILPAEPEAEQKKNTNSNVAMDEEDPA
UniProt Q13467, residues 27-585: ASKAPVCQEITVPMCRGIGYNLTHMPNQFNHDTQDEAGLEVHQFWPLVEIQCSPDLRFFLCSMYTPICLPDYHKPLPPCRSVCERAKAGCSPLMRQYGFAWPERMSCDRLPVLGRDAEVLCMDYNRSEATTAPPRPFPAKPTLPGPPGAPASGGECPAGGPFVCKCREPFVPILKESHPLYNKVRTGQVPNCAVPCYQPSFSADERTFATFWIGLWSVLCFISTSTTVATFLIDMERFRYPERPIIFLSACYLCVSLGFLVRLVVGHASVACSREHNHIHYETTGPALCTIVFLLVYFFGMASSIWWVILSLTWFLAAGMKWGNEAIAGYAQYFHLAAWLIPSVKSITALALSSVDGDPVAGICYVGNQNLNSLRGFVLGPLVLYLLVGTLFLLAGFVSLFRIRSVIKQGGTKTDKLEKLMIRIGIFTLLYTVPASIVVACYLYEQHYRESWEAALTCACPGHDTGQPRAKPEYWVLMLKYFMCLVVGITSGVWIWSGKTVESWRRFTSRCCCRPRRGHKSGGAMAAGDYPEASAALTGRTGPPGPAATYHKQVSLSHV
UniProt P29317, residues 24-976: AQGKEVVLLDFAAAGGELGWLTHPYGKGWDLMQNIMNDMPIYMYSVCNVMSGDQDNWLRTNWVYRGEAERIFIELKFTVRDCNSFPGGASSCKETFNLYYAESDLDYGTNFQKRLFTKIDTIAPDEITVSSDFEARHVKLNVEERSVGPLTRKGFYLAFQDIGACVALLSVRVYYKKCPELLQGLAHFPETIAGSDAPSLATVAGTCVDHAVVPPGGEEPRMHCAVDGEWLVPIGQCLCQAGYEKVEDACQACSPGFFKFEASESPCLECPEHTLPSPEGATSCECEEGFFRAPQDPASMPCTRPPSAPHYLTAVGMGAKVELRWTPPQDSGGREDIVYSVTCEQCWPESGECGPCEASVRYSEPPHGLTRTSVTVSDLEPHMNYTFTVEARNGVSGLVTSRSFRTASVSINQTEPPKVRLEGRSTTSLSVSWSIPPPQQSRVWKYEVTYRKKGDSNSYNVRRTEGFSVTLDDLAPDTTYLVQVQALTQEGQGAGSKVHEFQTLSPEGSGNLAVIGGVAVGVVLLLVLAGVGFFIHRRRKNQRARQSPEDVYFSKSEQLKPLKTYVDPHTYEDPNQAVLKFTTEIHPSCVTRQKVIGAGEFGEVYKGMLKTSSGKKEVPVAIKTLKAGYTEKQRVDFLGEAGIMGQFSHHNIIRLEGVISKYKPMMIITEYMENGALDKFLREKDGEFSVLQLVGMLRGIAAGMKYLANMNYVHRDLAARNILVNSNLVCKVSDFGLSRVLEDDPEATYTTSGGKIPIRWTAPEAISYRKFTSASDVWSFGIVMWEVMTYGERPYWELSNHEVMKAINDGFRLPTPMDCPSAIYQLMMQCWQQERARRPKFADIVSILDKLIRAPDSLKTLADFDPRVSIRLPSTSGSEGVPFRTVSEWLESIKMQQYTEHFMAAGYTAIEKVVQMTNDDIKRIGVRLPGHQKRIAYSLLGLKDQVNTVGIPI
UniProt P05556: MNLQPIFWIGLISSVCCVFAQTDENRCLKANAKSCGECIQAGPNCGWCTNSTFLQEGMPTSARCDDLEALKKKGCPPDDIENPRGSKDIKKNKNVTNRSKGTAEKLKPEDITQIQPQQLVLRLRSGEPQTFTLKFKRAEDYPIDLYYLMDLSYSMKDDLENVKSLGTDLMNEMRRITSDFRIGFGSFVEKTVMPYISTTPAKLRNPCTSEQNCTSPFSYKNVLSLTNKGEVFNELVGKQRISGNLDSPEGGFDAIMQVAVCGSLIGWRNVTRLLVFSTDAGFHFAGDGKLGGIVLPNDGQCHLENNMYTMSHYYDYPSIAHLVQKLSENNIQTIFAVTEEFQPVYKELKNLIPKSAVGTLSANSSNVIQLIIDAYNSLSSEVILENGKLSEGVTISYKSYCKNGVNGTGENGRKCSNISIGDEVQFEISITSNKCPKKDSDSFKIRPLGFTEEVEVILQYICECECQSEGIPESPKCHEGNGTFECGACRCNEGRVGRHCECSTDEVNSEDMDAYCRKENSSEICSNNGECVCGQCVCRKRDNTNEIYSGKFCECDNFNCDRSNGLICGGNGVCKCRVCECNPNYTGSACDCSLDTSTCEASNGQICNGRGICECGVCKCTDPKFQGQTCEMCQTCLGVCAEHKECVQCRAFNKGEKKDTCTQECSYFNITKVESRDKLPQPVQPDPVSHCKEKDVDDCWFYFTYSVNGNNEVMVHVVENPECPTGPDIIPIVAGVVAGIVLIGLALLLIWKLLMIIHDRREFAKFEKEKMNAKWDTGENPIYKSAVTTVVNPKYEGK
UniProt P16070, residues 21-742: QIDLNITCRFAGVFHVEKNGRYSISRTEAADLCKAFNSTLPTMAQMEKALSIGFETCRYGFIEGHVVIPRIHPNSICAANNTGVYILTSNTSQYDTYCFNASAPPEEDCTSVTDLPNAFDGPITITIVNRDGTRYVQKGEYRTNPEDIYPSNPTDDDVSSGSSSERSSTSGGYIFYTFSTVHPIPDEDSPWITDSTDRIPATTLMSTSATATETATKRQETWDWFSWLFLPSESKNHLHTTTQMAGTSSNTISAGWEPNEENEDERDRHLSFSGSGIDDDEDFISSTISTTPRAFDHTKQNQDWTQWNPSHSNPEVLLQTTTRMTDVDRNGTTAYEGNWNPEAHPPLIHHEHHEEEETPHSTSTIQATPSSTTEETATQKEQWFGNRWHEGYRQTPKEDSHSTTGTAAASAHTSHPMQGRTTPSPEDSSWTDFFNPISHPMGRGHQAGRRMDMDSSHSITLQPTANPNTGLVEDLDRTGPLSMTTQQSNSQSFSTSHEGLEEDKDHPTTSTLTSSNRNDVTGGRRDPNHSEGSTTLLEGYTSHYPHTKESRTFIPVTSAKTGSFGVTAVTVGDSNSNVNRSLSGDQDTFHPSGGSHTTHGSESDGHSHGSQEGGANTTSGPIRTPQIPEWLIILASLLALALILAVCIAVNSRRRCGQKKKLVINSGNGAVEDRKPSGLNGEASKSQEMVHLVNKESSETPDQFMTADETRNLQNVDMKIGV

The substances below were run against CD9:TurboID fusion protein (human) (UniProt P21926) (assay: proximity labelling; CD9:TurboID-V5 stably expressed in CD9-/- A549 cells; 50 μM biotin for 30, 60 or 240 min; cells uninfected or infected with N. meningitidis MC58 or S. aureus SH1000 (MOI = 50); RIPA lysis, streptavidin bead pull-down, on-bead digestion, LC-MS/MS with LFQ; enrichment against cytosolic TurboID (FDR 0.01, s0 = 2), infected against uninfected (FDR 0.05, s0 = 0.1)).

| Substance | binding |
| --- | --- |
| Solute carrier family 16 member 2 (from UniProt P36021 1-539) | binds |
| PCNA clamp-associated factor (from UniProt Q15004 1-111) | binds |
| CD46 (from UniProt P15529 35-392) | binds |
| Tspan15 (from UniProt O95858 1-294) | binds |
| CGRP receptor component (from UniProt O75575 1-148) | binds |
| Frizzled class receptor 5 (from UniProt Q13467 27-585) | binds |
| ephrin type-A receptor 2 (from UniProt P29317 24-976) | binds |
| integrin β1 (from UniProt P05556 21-798) | binds |
| CD44 (from UniProt P16070 21-742) | binds |
